Laboratory results from patent US20080064729A1, “Phenethylamide derivatives with kinase inhibitory activity” (Millennium Pharmaceuticals, Inc., priority 2006, published 2008).
Some entries share one result that the patent states for a list of compounds. Some compounds share one range, which may span the group rather than tell each member.

Chains of the proteins cited; added tags and fusions are not shown.
UniProt P15056, whole entry, stated change not applied: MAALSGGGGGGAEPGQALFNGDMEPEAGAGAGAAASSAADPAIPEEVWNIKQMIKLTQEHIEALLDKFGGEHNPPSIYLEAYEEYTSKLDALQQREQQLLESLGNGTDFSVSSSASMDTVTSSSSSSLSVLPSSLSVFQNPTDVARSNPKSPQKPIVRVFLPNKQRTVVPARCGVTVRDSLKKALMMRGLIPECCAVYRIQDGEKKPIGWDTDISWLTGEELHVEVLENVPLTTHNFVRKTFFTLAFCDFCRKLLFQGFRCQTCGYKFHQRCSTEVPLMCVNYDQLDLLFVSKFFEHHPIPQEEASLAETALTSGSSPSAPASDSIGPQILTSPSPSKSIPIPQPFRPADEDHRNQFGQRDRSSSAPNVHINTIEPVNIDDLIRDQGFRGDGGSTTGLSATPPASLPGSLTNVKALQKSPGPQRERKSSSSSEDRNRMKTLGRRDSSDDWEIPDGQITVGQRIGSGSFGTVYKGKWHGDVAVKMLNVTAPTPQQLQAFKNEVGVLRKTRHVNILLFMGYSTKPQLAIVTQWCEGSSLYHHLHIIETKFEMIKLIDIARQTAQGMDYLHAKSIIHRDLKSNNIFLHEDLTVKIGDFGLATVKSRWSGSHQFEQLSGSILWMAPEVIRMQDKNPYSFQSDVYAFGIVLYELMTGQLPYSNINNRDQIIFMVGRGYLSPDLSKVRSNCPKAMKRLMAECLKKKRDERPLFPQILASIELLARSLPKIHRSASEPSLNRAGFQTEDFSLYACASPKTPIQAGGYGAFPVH

The compounds below were run against T1, B-Raf (V599E or Wild Type) (Homo sapiens, UniProt P15056) (assay: B-Raf Flash Plate Assay). Conditions: 33P ATP, 0.5 μM ATP, 1 μM Peptide 118, V599E or Wild Type not specified.
T1 construct: Enzymatically active wild-type B-Raf was purchased from Upstate (cat# 14-530); Enzymatically active mutant B-Raf(V599E) was purchased from Upstate (cat# 14-557)
Format: biochemical

| SMILES | IC50 [nM] |
| --- | --- |
| O=C(NCCc1cccc(Oc2ccnc(C3=NCCN3)c2)c1)c1cccc(OC(F)(F)F)c1 [Compound I-126, N-[2-(3-{[2-(4,5-dihydro-1H-imidazol-2-yl)pyridin-4-yl]oxy}phenyl)ethyl]-3-(trifluoromethoxy)benzamide] | ≤ 1000 |
| CNC(=O)c1cc(Oc2ccc(CCCNC(=O)c3ccc(Cl)c(C(F)(F)F)c3)cc2)ccn1 [Compound I-129, 4-[4-(3-{[4-chloro-3-(trifluoromethyl)benzoyl]amino}propyl)phenoxy]-N-methylpyridine-2-carboxamide] | ≤ 1000 |
| CNC(=O)c1cc(Oc2cccc(CCNC(=O)c3cccc(-n4cnnn4)c3)c2)ccn1 [Compound I-130, N-methyl-4-[3-(2-{[3-(1H-tetrazol-1-yl)benzoyl]amino}ethyl)phenoxy]pyridine-2-carboxamide] | ≤ 1000 |
| CNC(=O)c1cc(Oc2cccc(CCNC(=O)c3cc(F)cc(C(F)(F)F)c3)c2)ccn1 [Compound I-132, 4-[3-(2-{[3-fluoro-5-(trifluoromethyl)benzoyl]amino}ethyl)phenoxy]-N-methylpyridine-2-carboxamide] | ≤ 1000 |

Same assay, conditions: tested at a concentration of 10 μM

| SMILES | inhibition |
| --- | --- |
| CNC(=O)c1cc(Oc2cccc(CCNC(=O)c3cccn3C)c2)ccn1 [Compound I-127, N-methyl-4-[3-(2-{[(1-methyl-1H-pyrrol-2-yl)carbonyl]amino}ethyl)-phenoxy]pyridine-2-carboxamide] | 40-68% |
| CNC(=O)c1cc(Oc2cccc(CCNC(=O)c3cc(CN4CCNCC4)cc(C(F)(F)F)c3)c2)ccn1 [Compound I-134, N-methyl-4-[3-(2-{[3-(piperazin-1-ylmethyl)-5-(trifluoromethyl)benzoyl]-amino}ethyl)phenoxy]pyridine-2-carboxamide] | 40-68% |
| CN1CCN(C(=O)c2cnc(-c3cc(Oc4cccc(CCNC(=O)c5cccc(C(F)(F)F)c5)c4)ccn3)[nH]2)CC1 [Compound I-135, N-(2-{3-[(2-{5-[(4-methylpiperazin-1-yl)carbonyl]-1H-imidazol-2-yl}pyridin-4-yl)oxy]phenyl}ethyl)-3-(trifluoromethyl)benzamide] | 40-68% |
| O=C(NCCc1cccc(Oc2ccnc(-c3ncc(CN4CCNCC4)[nH]3)c2)c1)c1cccc(C(F)(F)F)c1 [Compound I-136, N-{2-[3-({2-[5-(piperazin-1-ylmethyl)-1H-imidazol-2-yl]pyridin-4-yl}-oxy)phenyl]ethyl}-3-(trifluoromethyl)benzamide] | 40-68% |
| CNC(=O)c1cc(Nc2cccc(CCNC(=O)c3cccc(C(F)(F)F)c3)c2)ccn1 [Compound I-137, N-methyl-4-{[3-(2-{[3-(trifluoromethyl)benzoyl]amino}ethyl)phenyl]-amino}pyridine-2-carboxamide] | 40-68% |
| CNC(=O)c1cc(Cc2cccc(CCNC(=O)c3cccc(C(F)(F)F)c3)c2)ccn1 [Compound I-138, N-methyl-4-[3-(2-{[3-(trifluoromethyl)benzoyl]amino}ethyl)benzyl]pyridine-2-carboxamide] | 40-68% |
| CNC(=O)c1cc([S+]([O-])c2cccc(CCNC(=O)c3cccc(C(F)(F)F)c3)c2)ccn1 (stereo not drawn) [Compound I-139, N-methyl-4-{[3-(2-{[3-(trifluoromethyl)benzoyl]amino}ethyl)phenyl]sulfinyl}-pyridine-2-carboxamide] | 40-68% |
| CNC(=O)c1cc(Sc2cccc(CCNC(=O)c3cccc(C(F)(F)F)c3)c2)ccn1 [Compound I-140, N-methyl-4-{[3-(2-{[3-(trifluoromethyl)benzoyl]amino}ethyl)phenyl]sulfanyl}-pyridine-2-carboxamide] | 40-68% |
| CNC(=O)c1cc(Oc2cccc(CC(C)(C)NC(=O)c3cccc(C(F)(F)F)c3)c2)ccn1 [Compound I-141, N-methyl-4-[3-(2-methyl-2-{[3-(trifluoromethyl)benzoyl]amino}propyl)-phenoxy]pyridine-2-carboxamide] | 40-68% |
| O=C(NCCc1cccc(Oc2ccnc(-c3ncc(CN4CCOCC4)[nH]3)c2)c1)c1cccc(C(F)(F)F)c1 [Compound I-142, N-{2-[3-({2-[5-(morpholin-4-ylmethyl)-1H-imidazol-2-yl]pyridin-4-yl}-oxy)phenyl]ethyl}-3-(trifluoromethyl)benzamide] | 40-68% |
| CNC(=O)c1cc(Oc2cc(F)cc(CCNC(=O)c3cccc(C(F)(F)F)c3)c2)ccn1 [Compound I-143, 4-[3-fluoro-5-(2-{[3-(trifluoromethyl)benzoyl]amino}ethyl)phenoxy]-N-methylpyridine-2-carboxamide] | 40-68% |
| O=C1CCc2c(Oc3cccc(CCNC(=O)c4cccc(C(F)(F)F)c4)c3)ccnc2N1 [Compound I-144, N-(2-{3-[(7-oxo-5,6,7,8-tetrahydro-1,8-naphthyridin-4-yl)oxy]phenyl}ethyl)-3-(trifluoromethyl)benzamide] | 40-68% |
| Cn1cc(-c2cc(Oc3cccc(CCNC(=O)c4cccc(C(F)(F)F)c4)c3)ccn2)cn1 [Compound I-145, N-[2-(3-{[2-(1-methyl-1H-pyrazol-4-yl)pyridin-4-yl]oxy}phenyl)ethyl]-3-(trifluoromethyl)benzamide] | 40-68% |
| CNC(=O)c1cc(Oc2cccc(CCNC(=O)c3cc(CN(C)C)cc(C(F)(F)F)c3)c2)ccn1 [Compound I-146, 4-[3-(2-{[3-[(dimethylamino)methyl]-5-(trifluoromethyl)benzoyl]amino}ethyl)-phenoxy]-N-methylpyridine-2-carboxamide] | 40-68% |
| CNC(=O)c1cc(Oc2ccc(F)c(CCNC(=O)c3cccc(C(F)(F)F)c3)c2)ccn1 [Compound I-147, 4-[4-fluoro-3-(2-{[3-(trifluoromethyl)benzoyl]amino}ethyl)phenoxy]-N-methylpyridine-2-carboxamide] | 40-68% |
| CNC(=O)c1cc(Oc2ccnc(CCNC(=O)c3cccc(C(F)(F)F)c3)c2)ccn1 [Compound I-148, N-methyl-4-{[2-(2-{[3-(trifluoromethyl)benzoyl]amino}ethyl)pyridin-4-yl]-oxy}pyridine-2-carboxamide] | 40-68% |
| Cc1ncc(-c2cc(Oc3cccc(CCNC(=O)c4cccc(C(F)(F)F)c4)c3)ccn2)o1 [Compound I-149, N-[2-(3-{[2-(2-methyl-1,3-oxazol-5-yl)pyridin-4-yl]oxy}phenyl)ethyl]-3-(trifluoromethyl)benzamide] | 40-68% |
| C/N=C(/NC)c1cc(Oc2cccc(CCNC(=O)c3ccc(Cl)c(C(F)(F)F)c3)c2)ccn1 [Compound I-150, 4-chloro-N-{2-[3-({2-[(E)-(methylamino)(methylimino)methyl]pyridin-4-yl}-oxy)phenyl]ethyl}-3-(trifluoromethyl)benzamide] | 40-68% |
| CN=C(N)c1cc(Oc2cccc(CCNC(=O)c3ccc(Cl)c(C(F)(F)F)c3)c2)ccn1 [Compound I-151, N-{2-[3-({2-[(Z)-amino(methylimino)methyl]pyridin-4-yl}oxy)phenyl]ethyl}-4-chloro-3-(trifluoromethyl)benzamide] | 40-68% |
| N=C(N)c1cc(Oc2cccc(CCNC(=O)c3ccc(Cl)c(C(F)(F)F)c3)c2)ccn1 [Compound I-152, N-{2-[3-({2-[amino(imino)methyl]pyridin-4-yl}oxy)phenyl]ethyl}-4-chloro-3-(trifluoromethyl)benzamide] | 40-68% |
